{"source": "patent US20230183742A1", "about": "“Viral Vector Production” (Oxford BioMedica (UK) Limited, priority 2020, published 2023)", "test_system": "HEK1.65s cells", "assay_type": "cell-based, human", "note": "“Also recorded” adds a separate entry of the source.", "data": [{"smiles": "O=C(CCCCCCC(=O)Nc1ccccc1)NO", "note": "[SAHA, suberanilohydroxamic acid]", "values": [{"measurement": "inducing effect on LV titre among HDAC inhibitors", "value": "lowest LV titres; also recorded: weakest inducing effect"}]}]}
